According to article PMC3530832:
No constants are given. Whether binding was seen depends on the method and setting. In cells and extracts the contact can be indirect. Some binding calls cover weakened binding; strength is not graded here.

Biological target: heat shock cognate 70 kDa protein cpHSC70-1 (Arabidopsis) (UniProt Q9STW6)
Assay: split reporter; the two split YFP/BiFC constructs of cpHSC70-1 co-expressed with NSP:CFP and PDCB1:mCherry in leaf tissues of locally AbMV-infected N. benthamiana, 4 days post agro-infiltration, epi-fluorescence microscopy

binding: binds
B1: heat shock cognate 70 kDa protein cpHSC70-1 (protein, UniProt Q9STW6 93-718)
chain: AAMEGGKPTIVTNAEGQRTTPSVVAYTKSGDRLVGQIAKRQAVVNPENTFFSVKRFIGRKMNEVDEESKQVSYRVVRDENNNVKLECPAINKQFAAEEISAQVLRKLVDDASRFLNDKVTKAVITVPAYFNDSQRTATKDAGRIAGLEVLRIINEPTAASLAYGFDRKANETILVFDLGGGTFDVSVLEVGDGVFEVLSTSGDTHLGGDDFDKRVVDWLAAEFKKDEGIDLLKDKQALQRLTEAAEKAKIELSSLTQTNMSLPFITATADGPKHIETTLTRAKFEELCSDLLDRVRTPVENSLRDAKLSFKDIDEVILVGGSTRIPAVQELVRKVTGKEPNVTVNPDEVVALGAAVQAGVLAGDVSDIVLLDVTPLSIGLETLGGVMTKIIPRNTTLPTSKSEVFSTAADGQTSVEINVLQGEREFVRDNKSLGSFRLDGIPPAPRGVPQIEVKFDIDANGILSVSAVDKGTGKKQDITITGASTLPKDEVDQMVQEAERFAKDDKEKRDAIDTKNQADSVVYQTEKQLKELGEKIPGEVKEKVEAKLQELKDKIGSGSTQEIKDAMAALNQEVMQIGQSLYNQPGAGGPGAGPSPGGEGASSGDSSSSKGGDGDDVIDADFTDSQ
